PubChem BioAssay AID1259405, NCATS, 2018
Here is a random part of about 50,000 reagents. About 4,000 of all reagents (8%) count as active. 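Mouse siRNA library applied to hamster cells; one well for each siRNA.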 Unmarked entries are inactive. Reagents against one gene are numbered here.

- Assay: 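Silenced genes that increase secreted GFP made by CHO cells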 (primary screen)
- Cell system: Chinese hamster CHO-K1 ovary cells with stable secreted eGFP expression
- Knock-down reagent: single siRNA against mouse genes, 0.8 pmol siRNA per well (2 µl of 400 nM stock)
- Time to read-out: 3 days
- Measured: 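Per-well intracellular GFP measured by laser scanning cytometry, plus viability from ATP luminescence, each relative to plate median of non-targeting control wells, in %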
- Direction: GFP, % of control: higher = more GFP per well, higher productivity; viability (ATP), % of control: higher = more viable cells (more ATP)
- Hit rule: 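Called active when intracellular GFP, relative to negative control, is at or above 120%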

target	reagent no.	GFP, % of control	viability (ATP), % of control
Masp2 (MBL associated serine protease 2)	1	57	78.7
Masp2 (MBL associated serine protease 2)	2	63.4	103
Masp2 (MBL associated serine protease 2)	3	58	58.7
Lrrc39 (leucine rich repeat containing 39)	1	46	46.9
Lrrc39 (leucine rich repeat containing 39)	2	61.2	78.1
Lrrc39 (leucine rich repeat containing 39)	3	69.4	96.9
Tpm2 (tropomyosin 2, beta)	1	57.4	79.1
Tpm2 (tropomyosin 2, beta)	2	40.8	45.4
Tpm2 (tropomyosin 2, beta)	3	75.2	72.5
Dbh (dopamine beta hydroxylase)	1	79	79.1
Dbh (dopamine beta hydroxylase)	2	74.1	46.1
Dbh (dopamine beta hydroxylase)	3	58.4	51.7
Myoz3 (myozenin 3)	1	95.4	56.6
Myoz3 (myozenin 3)	2	56.3	51.6
Dcp1a (decapping mRNA 1A)	1	72.2	87.2
Dcp1a (decapping mRNA 1A)	2	114	80.3
Acin1 (apoptotic chromatin condensation inducer 1)	1	44.7	55
Acin1 (apoptotic chromatin condensation inducer 1)	2	72.1	51.9
Acin1 (apoptotic chromatin condensation inducer 1)	3	52.3	75.5
Cyp21a1 (cytochrome P450, family 21, subfamily a, polypeptide 1)	1	163 (active)	99
Cyp21a1 (cytochrome P450, family 21, subfamily a, polypeptide 1)	2	60.5	62.4
Cyp21a1 (cytochrome P450, family 21, subfamily a, polypeptide 1)	3	109	64.5
Dcaf1 (DDB1 and CUL4 associated factor 1)	1	32	37
Dcaf1 (DDB1 and CUL4 associated factor 1)	2	46.8	64.1
Dcaf1 (DDB1 and CUL4 associated factor 1)	3	48	44.6
Ddx60 (DExD/H box helicase 60)	1	54.8	38.8
Ddx60 (DExD/H box helicase 60)	2	103	94.5
Ddx60 (DExD/H box helicase 60)	3	47.5	73
Man1b1 (mannosidase, alpha, class 1B, member 1)	1	57.3	97.6
Man1b1 (mannosidase, alpha, class 1B, member 1)	2	88	85
Man1b1 (mannosidase, alpha, class 1B, member 1)	3	126 (active)	80.8
Ptpru (protein tyrosine phosphatase receptor type U)	1	80.2	78.3
Ptpru (protein tyrosine phosphatase receptor type U)	2	60.8	71.4
Ptpru (protein tyrosine phosphatase receptor type U)	3	111	94.2
Ints5 (integrator complex subunit 5)	1	80	76.6
Ints5 (integrator complex subunit 5)	2	97	68.6
Ints5 (integrator complex subunit 5)	3	55.3	64.8
4931431C16Rik (RIKEN cDNA 4931431C16 gene)	1	79.3	81.9
4931431C16Rik (RIKEN cDNA 4931431C16 gene)	2	48.4	73.4
4931431C16Rik (RIKEN cDNA 4931431C16 gene)	3	70	73.2
Irf7 (interferon regulatory factor 7)	1	78.6	45.6
Irf7 (interferon regulatory factor 7)	2	85	65.6
Irf7 (interferon regulatory factor 7)	3	83.6	89.7
Rab11a (RAB11A, member RAS oncogene family)	1	110	124
Rab11a (RAB11A, member RAS oncogene family)	2	86.2	70.5
Rab11a (RAB11A, member RAS oncogene family)	3	59.8	52.6
Med4 (mediator complex subunit 4)	1	62.2	54.8
Med4 (mediator complex subunit 4)	2	60.7	62.6
Med4 (mediator complex subunit 4)	3	73.7	59
Klc3 (kinesin light chain 3)	1	68.9	73.9
Klc3 (kinesin light chain 3)	2	74.9	65.3
Klc3 (kinesin light chain 3)	3	129 (active)	84.4
Klra15 (killer cell lectin-like receptor, subfamily A, member 15)	1	60.3	74.7
Klra15 (killer cell lectin-like receptor, subfamily A, member 15)	2	50.4	19.2
Klra15 (killer cell lectin-like receptor, subfamily A, member 15)	3	99.4	73.4
Gltp (glycolipid transfer protein)	1	45.7	66.3
Gltp (glycolipid transfer protein)	2	63	48.2
Gltp (glycolipid transfer protein)	3	51.4	51.5
Ints6 (integrator complex subunit 6)	1	88.4	69.5
Ints6 (integrator complex subunit 6)	2	64.1	60.3
Ints6 (integrator complex subunit 6)	3	95.1	104
Plin2 (perilipin 2)	1	97.9	75.4
Plin2 (perilipin 2)	2	120 (active)	76.7
Plin2 (perilipin 2)	3	53.5	81.5
Zdhhc21 (zinc finger, DHHC domain containing 21)	1	67.6	70
Zdhhc21 (zinc finger, DHHC domain containing 21)	2	87	60.4
Zdhhc21 (zinc finger, DHHC domain containing 21)	3	60.3	66.6
Slc25a10	1	107	82.4
Slc25a10	2	120	99.9
Slc25a10	3	56.7	84.1
Tcte2 (t-complex-associated testis expressed 2)	1	81.6	37.1
Tcte2 (t-complex-associated testis expressed 2)	2	107	103
Tcte2 (t-complex-associated testis expressed 2)	3	102	104
Prss34 (serine protease 34)	1	179 (active)	124
Prss34 (serine protease 34)	2	154 (active)	94.6
Prss34 (serine protease 34)	3	91.8	81.6
Cmtm5 (CKLF-like MARVEL transmembrane domain containing 5)	1	93.3	86.8
Cmtm5 (CKLF-like MARVEL transmembrane domain containing 5)	2	88.4	71
Cmtm5 (CKLF-like MARVEL transmembrane domain containing 5)	3	120 (active)	131
Sh3bgr (SH3-binding domain glutamic acid-rich protein)	1	43	43.4
Sh3bgr (SH3-binding domain glutamic acid-rich protein)	2	63.2	76.2
Sh3bgr (SH3-binding domain glutamic acid-rich protein)	3	68	90.8
Myo15a (myosin XVA)	1	95.4	97.8
Myo15a (myosin XVA)	2	74	115
Nkx2-4 (NK2 homeobox 4)	1	55.5	62
Nkx2-4 (NK2 homeobox 4)	2	66.9	79.1
Nkx2-4 (NK2 homeobox 4)	3	66.6	80.3
Bdkrb1 (bradykinin receptor, beta 1)	1	92.9	68.2
Bdkrb1 (bradykinin receptor, beta 1)	2	77	78.9
Bdkrb1 (bradykinin receptor, beta 1)	3	74.4	68.2
Tmt1a (thiol methyltransferase 1A1)	1	93.1	65
Tmt1a (thiol methyltransferase 1A1)	2	37.8	38.5
Tmt1a (thiol methyltransferase 1A1)	3	91.2	79.8
Or13p4 (olfactory receptor family 13 subfamily P member 4)	1	81.6	67.7
Or13p4 (olfactory receptor family 13 subfamily P member 4)	2	45.7	52.6
Or13p4 (olfactory receptor family 13 subfamily P member 4)	3	42.8	61.1
Tatdn2 (TatD DNase domain containing 2)	1	79	81.9
Tatdn2 (TatD DNase domain containing 2)	2	69.7	70.6
Tatdn2 (TatD DNase domain containing 2)	3	99.9	68.8
Trappc9 (trafficking protein particle complex 9)	1	97.5	65.9
Trappc9 (trafficking protein particle complex 9)	2	158 (active)	58.4
Trappc9 (trafficking protein particle complex 9)	3	87.6	100
Ctse (cathepsin E)	1	76.8	93.5
Ctse (cathepsin E)	2	172 (active)	93.3
Ctse (cathepsin E)	3	76.9	63.6
Or4c15b (olfactory receptor family 4 subfamily C member 15B)	1	86.7	87.6
Or4c15b (olfactory receptor family 4 subfamily C member 15B)	2	89.3	75.8
Or4c15b (olfactory receptor family 4 subfamily C member 15B)	3	56.2	74.2

Records above whose gene name begins with L or l (3):
target	reagent no.	GFP, % of control	viability (ATP), % of control
Lrrc39 (leucine rich repeat containing 39)	1	46	46.9
Lrrc39 (leucine rich repeat containing 39)	2	61.2	78.1
Lrrc39 (leucine rich repeat containing 39)	3	69.4	96.9
